Results on 37 targets are retold here after the supplement of paper PMC7666118.

Amino acid sequences for entries named in this document (tags omitted). A change or cut given only in a name is not applied to a line headed by its entry.
UniProt Q659C4: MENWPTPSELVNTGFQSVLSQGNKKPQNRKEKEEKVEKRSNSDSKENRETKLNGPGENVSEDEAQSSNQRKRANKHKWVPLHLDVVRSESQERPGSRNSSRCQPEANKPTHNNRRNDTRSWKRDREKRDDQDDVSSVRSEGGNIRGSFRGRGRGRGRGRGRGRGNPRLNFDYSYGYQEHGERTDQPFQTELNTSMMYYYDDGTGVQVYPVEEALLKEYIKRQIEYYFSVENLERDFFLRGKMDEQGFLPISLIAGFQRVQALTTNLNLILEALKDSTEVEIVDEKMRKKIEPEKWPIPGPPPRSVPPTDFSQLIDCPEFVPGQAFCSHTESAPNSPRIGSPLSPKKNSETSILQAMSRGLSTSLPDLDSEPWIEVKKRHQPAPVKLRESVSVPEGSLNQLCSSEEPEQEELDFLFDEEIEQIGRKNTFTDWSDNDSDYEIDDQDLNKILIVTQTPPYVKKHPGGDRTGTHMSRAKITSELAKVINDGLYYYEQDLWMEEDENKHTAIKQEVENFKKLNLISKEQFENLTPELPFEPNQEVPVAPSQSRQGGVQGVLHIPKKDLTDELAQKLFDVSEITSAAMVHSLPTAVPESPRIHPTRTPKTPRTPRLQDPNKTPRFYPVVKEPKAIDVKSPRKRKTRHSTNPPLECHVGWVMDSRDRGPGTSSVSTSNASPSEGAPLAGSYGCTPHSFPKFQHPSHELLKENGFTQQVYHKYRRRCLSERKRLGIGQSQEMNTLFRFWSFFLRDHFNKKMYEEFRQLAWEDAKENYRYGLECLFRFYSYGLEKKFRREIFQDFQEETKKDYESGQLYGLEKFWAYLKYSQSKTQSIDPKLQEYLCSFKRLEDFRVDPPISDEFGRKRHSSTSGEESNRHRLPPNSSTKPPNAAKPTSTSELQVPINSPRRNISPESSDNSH
UniProt P28838: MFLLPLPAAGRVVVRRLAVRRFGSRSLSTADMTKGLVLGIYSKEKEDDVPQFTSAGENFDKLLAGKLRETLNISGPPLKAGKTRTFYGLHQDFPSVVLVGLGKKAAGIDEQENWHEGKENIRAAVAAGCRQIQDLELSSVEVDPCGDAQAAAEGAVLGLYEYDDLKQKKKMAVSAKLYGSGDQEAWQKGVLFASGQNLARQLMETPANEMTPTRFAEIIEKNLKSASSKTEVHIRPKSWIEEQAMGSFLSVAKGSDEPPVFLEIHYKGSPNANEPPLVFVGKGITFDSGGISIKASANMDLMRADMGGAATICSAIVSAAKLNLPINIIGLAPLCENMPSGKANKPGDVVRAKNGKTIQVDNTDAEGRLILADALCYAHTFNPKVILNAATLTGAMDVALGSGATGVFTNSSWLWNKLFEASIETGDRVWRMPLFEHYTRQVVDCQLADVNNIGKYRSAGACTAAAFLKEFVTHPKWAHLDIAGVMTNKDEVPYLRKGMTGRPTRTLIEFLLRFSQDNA
UniProt P48059, whole entry: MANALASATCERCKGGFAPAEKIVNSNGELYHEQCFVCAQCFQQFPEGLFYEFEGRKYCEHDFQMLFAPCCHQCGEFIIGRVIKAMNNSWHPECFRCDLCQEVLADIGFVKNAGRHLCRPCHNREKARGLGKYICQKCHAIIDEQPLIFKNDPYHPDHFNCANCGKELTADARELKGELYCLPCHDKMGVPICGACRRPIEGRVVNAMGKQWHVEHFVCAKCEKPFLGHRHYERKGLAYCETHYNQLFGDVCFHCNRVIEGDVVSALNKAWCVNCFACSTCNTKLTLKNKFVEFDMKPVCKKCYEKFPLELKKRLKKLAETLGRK
UniProt Q86X10: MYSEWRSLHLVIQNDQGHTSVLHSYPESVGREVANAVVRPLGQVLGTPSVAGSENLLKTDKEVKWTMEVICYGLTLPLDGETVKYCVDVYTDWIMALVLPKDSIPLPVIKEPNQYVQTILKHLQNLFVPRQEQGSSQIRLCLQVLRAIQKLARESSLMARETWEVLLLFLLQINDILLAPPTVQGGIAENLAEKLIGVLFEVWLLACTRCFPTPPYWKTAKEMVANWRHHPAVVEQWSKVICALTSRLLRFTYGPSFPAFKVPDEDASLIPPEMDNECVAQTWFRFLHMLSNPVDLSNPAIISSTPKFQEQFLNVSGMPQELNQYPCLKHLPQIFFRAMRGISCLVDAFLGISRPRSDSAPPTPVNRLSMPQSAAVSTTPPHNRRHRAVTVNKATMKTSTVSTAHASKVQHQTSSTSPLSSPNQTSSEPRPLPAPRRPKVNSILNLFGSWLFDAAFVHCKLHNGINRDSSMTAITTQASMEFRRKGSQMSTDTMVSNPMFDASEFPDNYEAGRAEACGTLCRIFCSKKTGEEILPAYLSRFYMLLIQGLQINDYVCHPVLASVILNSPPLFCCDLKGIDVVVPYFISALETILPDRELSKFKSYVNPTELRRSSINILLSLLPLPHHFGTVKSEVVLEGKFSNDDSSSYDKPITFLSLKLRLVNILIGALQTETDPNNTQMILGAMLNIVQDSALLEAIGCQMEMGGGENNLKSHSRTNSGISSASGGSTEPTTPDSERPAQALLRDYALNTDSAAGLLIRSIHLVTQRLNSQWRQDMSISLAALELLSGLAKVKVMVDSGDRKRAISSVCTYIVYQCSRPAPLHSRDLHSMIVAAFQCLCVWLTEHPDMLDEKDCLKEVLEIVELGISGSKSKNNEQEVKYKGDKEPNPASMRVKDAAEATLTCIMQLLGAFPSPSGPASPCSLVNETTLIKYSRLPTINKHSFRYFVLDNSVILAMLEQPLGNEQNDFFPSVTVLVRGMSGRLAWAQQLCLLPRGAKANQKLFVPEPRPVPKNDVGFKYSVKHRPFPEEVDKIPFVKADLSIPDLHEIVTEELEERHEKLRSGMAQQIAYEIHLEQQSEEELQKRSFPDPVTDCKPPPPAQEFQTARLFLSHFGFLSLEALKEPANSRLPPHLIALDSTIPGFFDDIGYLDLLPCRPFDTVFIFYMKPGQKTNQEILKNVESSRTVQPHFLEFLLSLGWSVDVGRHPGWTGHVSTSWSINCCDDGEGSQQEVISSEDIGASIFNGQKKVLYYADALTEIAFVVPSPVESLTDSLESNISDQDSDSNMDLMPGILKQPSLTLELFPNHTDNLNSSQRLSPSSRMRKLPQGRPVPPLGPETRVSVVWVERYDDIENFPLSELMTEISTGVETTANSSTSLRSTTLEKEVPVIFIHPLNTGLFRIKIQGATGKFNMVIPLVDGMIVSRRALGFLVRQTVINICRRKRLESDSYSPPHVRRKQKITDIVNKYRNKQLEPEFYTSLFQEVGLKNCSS
UniProt Q96EK9: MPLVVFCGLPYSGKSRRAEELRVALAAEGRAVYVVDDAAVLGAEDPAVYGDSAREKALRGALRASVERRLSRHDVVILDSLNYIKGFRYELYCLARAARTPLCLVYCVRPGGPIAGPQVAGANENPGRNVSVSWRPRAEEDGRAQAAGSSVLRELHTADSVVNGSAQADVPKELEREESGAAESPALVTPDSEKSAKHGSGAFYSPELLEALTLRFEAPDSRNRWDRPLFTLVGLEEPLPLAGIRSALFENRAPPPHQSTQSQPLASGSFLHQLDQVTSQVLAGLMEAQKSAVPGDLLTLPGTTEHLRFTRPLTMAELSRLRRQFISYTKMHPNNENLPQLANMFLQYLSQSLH
UniProt Q9H9P8: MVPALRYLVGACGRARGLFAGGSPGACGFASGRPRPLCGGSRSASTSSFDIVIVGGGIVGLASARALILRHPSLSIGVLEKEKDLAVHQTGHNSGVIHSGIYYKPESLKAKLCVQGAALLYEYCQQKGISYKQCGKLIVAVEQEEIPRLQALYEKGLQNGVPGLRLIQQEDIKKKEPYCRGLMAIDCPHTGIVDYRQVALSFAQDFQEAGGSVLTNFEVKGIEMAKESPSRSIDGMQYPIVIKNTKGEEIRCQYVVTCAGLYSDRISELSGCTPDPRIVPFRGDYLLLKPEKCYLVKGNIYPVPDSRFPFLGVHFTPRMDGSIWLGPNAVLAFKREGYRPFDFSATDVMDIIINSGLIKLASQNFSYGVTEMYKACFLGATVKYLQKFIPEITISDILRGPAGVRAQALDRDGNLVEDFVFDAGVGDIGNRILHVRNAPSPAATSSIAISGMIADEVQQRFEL
UniProt Q9NQ29: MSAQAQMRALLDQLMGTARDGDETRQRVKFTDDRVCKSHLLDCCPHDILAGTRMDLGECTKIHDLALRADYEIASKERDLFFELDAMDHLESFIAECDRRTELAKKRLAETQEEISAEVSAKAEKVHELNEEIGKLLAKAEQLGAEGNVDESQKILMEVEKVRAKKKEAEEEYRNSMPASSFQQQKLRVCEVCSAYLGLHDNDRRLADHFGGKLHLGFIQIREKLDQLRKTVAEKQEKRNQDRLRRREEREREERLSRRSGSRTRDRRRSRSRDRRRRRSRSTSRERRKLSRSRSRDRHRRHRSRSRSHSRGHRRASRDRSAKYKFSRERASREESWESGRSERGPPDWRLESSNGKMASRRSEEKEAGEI
UniProt Q32P28: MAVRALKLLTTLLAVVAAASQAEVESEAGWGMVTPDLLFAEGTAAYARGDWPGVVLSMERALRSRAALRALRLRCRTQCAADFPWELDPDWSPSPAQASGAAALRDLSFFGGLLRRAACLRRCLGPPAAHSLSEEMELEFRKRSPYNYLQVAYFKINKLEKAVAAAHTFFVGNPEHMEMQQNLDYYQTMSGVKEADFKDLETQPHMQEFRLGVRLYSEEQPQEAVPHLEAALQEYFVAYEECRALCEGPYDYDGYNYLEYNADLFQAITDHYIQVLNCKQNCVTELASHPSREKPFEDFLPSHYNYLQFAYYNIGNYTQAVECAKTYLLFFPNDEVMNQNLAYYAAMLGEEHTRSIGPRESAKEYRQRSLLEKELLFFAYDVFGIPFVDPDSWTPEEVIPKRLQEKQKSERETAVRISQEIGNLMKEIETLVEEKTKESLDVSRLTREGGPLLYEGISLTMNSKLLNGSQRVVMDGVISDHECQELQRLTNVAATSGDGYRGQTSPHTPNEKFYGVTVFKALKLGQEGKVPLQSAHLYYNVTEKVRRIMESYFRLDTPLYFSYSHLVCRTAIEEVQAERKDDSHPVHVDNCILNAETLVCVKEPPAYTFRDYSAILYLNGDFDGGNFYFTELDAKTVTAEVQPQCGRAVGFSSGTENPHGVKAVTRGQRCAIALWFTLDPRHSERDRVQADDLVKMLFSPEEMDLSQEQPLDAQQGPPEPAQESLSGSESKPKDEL
UniProt Q86WA8: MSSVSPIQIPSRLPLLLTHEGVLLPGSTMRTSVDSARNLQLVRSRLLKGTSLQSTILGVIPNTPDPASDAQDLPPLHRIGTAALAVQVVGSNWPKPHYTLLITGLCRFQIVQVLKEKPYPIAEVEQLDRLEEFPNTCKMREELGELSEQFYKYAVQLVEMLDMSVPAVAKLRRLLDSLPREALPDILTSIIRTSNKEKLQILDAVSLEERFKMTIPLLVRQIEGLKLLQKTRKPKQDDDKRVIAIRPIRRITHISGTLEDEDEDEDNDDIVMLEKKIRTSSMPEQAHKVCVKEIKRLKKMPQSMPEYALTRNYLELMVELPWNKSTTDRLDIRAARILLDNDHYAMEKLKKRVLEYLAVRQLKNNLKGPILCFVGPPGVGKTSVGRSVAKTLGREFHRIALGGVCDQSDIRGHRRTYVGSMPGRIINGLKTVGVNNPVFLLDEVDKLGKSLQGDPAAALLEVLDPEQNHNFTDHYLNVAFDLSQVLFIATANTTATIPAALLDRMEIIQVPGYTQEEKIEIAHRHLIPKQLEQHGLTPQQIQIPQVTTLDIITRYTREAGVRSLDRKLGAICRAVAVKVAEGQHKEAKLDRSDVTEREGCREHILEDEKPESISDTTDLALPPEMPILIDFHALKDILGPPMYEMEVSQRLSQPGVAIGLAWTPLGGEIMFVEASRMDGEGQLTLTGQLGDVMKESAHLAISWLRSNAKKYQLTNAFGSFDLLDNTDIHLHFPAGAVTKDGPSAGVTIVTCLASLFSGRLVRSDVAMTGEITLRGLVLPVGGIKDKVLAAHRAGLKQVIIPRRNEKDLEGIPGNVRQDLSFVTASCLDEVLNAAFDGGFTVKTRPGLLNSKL
UniProt Q8TBB5: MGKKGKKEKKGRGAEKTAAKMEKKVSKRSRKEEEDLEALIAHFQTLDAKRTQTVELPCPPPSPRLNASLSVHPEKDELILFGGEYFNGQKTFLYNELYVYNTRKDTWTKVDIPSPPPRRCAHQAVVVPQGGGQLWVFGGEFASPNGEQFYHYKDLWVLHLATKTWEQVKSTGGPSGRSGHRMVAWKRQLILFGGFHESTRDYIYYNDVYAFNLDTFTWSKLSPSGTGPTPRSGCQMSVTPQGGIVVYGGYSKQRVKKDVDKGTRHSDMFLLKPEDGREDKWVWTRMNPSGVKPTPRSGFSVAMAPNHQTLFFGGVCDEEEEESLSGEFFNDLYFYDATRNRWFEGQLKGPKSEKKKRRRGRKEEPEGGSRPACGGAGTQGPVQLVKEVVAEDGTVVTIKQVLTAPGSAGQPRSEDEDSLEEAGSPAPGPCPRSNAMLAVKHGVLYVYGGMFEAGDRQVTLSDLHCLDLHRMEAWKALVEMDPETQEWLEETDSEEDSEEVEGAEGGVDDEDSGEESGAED

The other results are listed elsewhere or left out.

Compound in the assay: COc1ccc(Cn2ccc3ccc(C(=O)NO)cc32)cc1
In words: dose-dependent thermal stabilisation call (2D-TPP, DLPTP, 10% FDR) (binary (1 = stabilised)); higher = stabilised by the compound. Particulars: system: HL-60 intact cells; concentration range 0.04-10 µM.
For KIAA1602 (UniProt Q9HCH0), the “dose-dependent thermal stabilisation call” value is inactive: 0. Under KLHL7 (UniProt Q8IXQ5) stands inactive: 0; under KIFC1 (UniProt Q9BW19), inactive: 0; under LOC284889, inactive: 0. As to MAN1A2 (UniProt O60476), the “dose-dependent thermal stabilisation call” value is inactive: 0.

Consider LOC647000, for which the “dose-dependent thermal stabilisation call” value was inactive: 0. Take KIAA1109 (UniProt Q2LD37): the “dose-dependent thermal stabilisation call” value is inactive: 0. With LARP2 (UniProt Q659C4), the “dose-dependent thermal stabilisation call” value is inactive: 0. On to LAP3 (UniProt P28838), for which the “dose-dependent thermal stabilisation call” value was active: 1. LAT (UniProt O43561): the “dose-dependent thermal stabilisation call” value was inactive: 0.

For KIAA0776 (UniProt O94874), the “dose-dependent thermal stabilisation call” value was inactive: 0. As to KIAA1545 (UniProt Q9HCM7), the “dose-dependent thermal stabilisation call” value was inactive: 0. Regarding LIMS1 (UniProt P48059), the “dose-dependent thermal stabilisation call” value is inactive: 0. Consider KIAA1219 (UniProt Q86X10), for which the “dose-dependent thermal stabilisation call” value is inactive: 0. On to KTI12 (UniProt Q96EK9), for which the “dose-dependent thermal stabilisation call” value was inactive: 0.

With LARP4 (UniProt Q71RC2), the “dose-dependent thermal stabilisation call” value is inactive: 0. In the case of LOC203547, the “dose-dependent thermal stabilisation call” value is inactive: 0. With L2HGDH (UniProt Q9H9P8), the “dose-dependent thermal stabilisation call” value was active: 1. In the case of LUC7L (UniProt Q9NQ29), the “dose-dependent thermal stabilisation call” value is inactive: 0. LSS (UniProt P48449): the “dose-dependent thermal stabilisation call” value is inactive: 0. As for LEPRE1 (UniProt Q32P28), the “dose-dependent thermal stabilisation call” value is inactive: 0. Take LONP2 (UniProt Q86WA8): the “dose-dependent thermal stabilisation call” value was inactive: 0. For the target LIMD2 (UniProt Q9BT23), the “dose-dependent thermal stabilisation call” value was inactive: 0. Under LOC642393 stands inactive: 0; under LRFN4 (UniProt Q6PJG9), inactive: 0. Under KIAA1279 (UniProt Q96EK5) stands inactive: 0.

On to LMO7 (UniProt Q8WWI1), for which the “dose-dependent thermal stabilisation call” value is inactive: 0. Under LSM4 (UniProt Q9Y4Z0) stands inactive: 0; under LOC100131572, inactive: 0; under KLHDC4 (UniProt Q8TBB5), inactive: 0.

Regarding LRMP (UniProt Q12912), the “dose-dependent thermal stabilisation call” value was inactive: 0. Under LOC389203 stands inactive: 0; under LYRM7 (UniProt Q5U5X0), inactive: 0; under KIAA1949 (UniProt Q6NYC8), inactive: 0. As for LYRM2 (UniProt Q9NU23), the “dose-dependent thermal stabilisation call” value was inactive: 0. Consider LZTFL1 (UniProt Q9NQ48), for which the “dose-dependent thermal stabilisation call” value is inactive: 0.

Take KIAA2013 (UniProt Q8IYS2): the “dose-dependent thermal stabilisation call” value was inactive: 0.
